Some of the results follow.
Key:
Test in all cases: glycan array binding signal (z-score within array); higher = stronger binding
Settings in all cases: glycan notation: IUPAC condensed, linker removed
[1] = biological target: Man(a1-3)[Man(a1-6)]Man(a1-6)[Man(a1-3)]Man
How it was run: (§1)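 Glycan array binding is given as a within-array Z-score, which can be read as non-binding when negative. The arrays, 3228 of them, came from the Consortium for Functional Glycomics database and were retained only where the protein sequence was available. Z-scores were averaged across arrays of the same protein sequence at different concentrations or buffers and across linkers.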

[2] = biological target: Man(a1-3)[Man(a1-6)]Man(a1-6)[Man(a1-3)]Man(b1-4)GlcNAc(b1-4)GlcNAc
How it was run: as §1

[3] = biological target: Man(a1-3)[Man(a1-6)]Man(b1-4)GlcNAc(b1-4)GlcNAc
How it was run: as §1

[4] = biological target: Man(a1-3)[Man(a1-6)]Man(b1-4)GlcNAc(b1-4)[Fuc(a1-6)]GlcNAc
How it was run: as §1

[5] = biological target: Man(a1-6)Man
How it was run: as §1

[6] = biological target: Man(b1-4)GlcNAc
How it was run: as §1

[7] = biological target: MurNAc(b1-4)GlcNAc
How it was run: as §1

[8] = biological target: Neu5Ac(a2-3)Gal
How it was run: as §1

[9] = biological target: Neu5Ac(a2-3)Gal(b1-3)GalNAc
How it was run: as §1

[10] = biological target: Neu5Ac(a2-3)Gal(b1-3)GalNAc(b1-3)Gal(a1-4)Gal(b1-4)Glc
How it was run: as §1

[11] = biological target: Neu5Ac(a2-3)Gal(b1-3)GalNAc(b1-4)[Neu5Ac(a2-3)]Gal(b1-4)Glc
How it was run: as §1

[12] = biological target: Neu5Ac(a2-3)Gal(b1-3)GalNAc(b1-4)[Neu5Ac(a2-8)Neu5Ac(a2-3)]Gal(b1-4)Glc
How it was run: as §1

[13] = biological target: Neu5Ac(a2-3)Gal(b1-3)GalNAc6S
How it was run: as §1

[14] = biological target: Neu5Ac(a2-3)Gal(b1-3)GlcNAc
How it was run: as §1

[15] = biological target: Neu5Ac(a2-3)Gal(b1-3)GlcNAc(b1-2)Man
How it was run: as §1

[16] = biological target: Neu5Ac(a2-3)Gal(b1-3)GlcNAc(b1-2)Man(a1-3)[GlcNAc(b1-4)][Neu5Ac(a2-3)Gal(b1-3)GlcNAc(b1-2)Man(a1-6)]Man(b1-4)GlcNAc(b1-4)GlcNAc
How it was run: as §1

[17] = biological target: Neu5Ac(a2-3)Gal(b1-3)GlcNAc(b1-2)Man(a1-3)[Neu5Ac(a2-3)Gal(b1-3)GlcNAc(b1-2)Man(a1-6)]Man(b1-4)GlcNAc(b1-4)GlcNAc
How it was run: as §1

[18] = biological target: Neu5Ac(a2-3)Gal(b1-3)GlcNAc(b1-3)Gal(b1-3)GlcNAc
How it was run: as §1

[19] = biological target: Neu5Ac(a2-3)Gal(b1-3)GlcNAc(b1-3)Gal(b1-4)GlcNAc
How it was run: as §1

[20] = biological target: Neu5Ac(a2-3)Gal(b1-3)GlcNAc(b1-3)GalNAc
How it was run: as §1

[21] = biological target: Neu5Ac(a2-3)Gal(b1-3)GlcNAc(b1-4)Gal(b1-4)Glc
How it was run: as §1

[22] = biological target: Neu5Ac(a2-3)Gal(b1-3)GlcNAc(b1-6)GalNAc
How it was run: as §1

[23] = biological target: Neu5Ac(a2-3)Gal(b1-3)GlcNAc6S
How it was run: as §1

[24] = biological target: Neu5Ac(a2-3)Gal(b1-3)[Fuc(a1-4)]GlcNAc
How it was run: as §1

[25] = biological target: Neu5Ac(a2-3)Gal(b1-3)[Fuc(a1-4)]GlcNAc(b1-3)Gal(b1-3)[Fuc(a1-4)]GlcNAc
How it was run: as §1

[26] = biological target: Neu5Ac(a2-3)Gal(b1-3)[Fuc(a1-4)]GlcNAc(b1-3)Gal(b1-4)[Fuc(a1-3)]GlcNAc
How it was run: as §1

[27] = biological target: Neu5Ac(a2-3)Gal(b1-3)[GlcNAc(b1-6)]GalNAc
How it was run: as §1

[28] = biological target: Neu5Ac(a2-3)Gal(b1-3)[Neu5Ac(a2-6)]GalNAc
How it was run: as §1

[29] = biological target: Neu5Ac(a2-3)Gal(b1-3)[Neu5Ac(a2-6)]GlcNAc(b1-3)[Fuc(a1-3)[Gal(b1-4)]GlcNAc(b1-6)]Gal(b1-4)Glc
How it was run: as §1

[30] = biological target: Neu5Ac(a2-3)Gal(b1-3)]Neu5Ac(a2-3)Gal(b1-4)]GlcNAc
How it was run: as §1

[31] = biological target: Neu5Ac(a2-3)Gal(b1-4)Glc
How it was run: as §1

[32] = biological target: Neu5Ac(a2-3)Gal(b1-4)GlcNAc
How it was run: as §1

[33] = biological target: Neu5Ac(a2-3)Gal(b1-4)GlcNAc(b1-2)Man
How it was run: as §1

[34] = biological target: Neu5Ac(a2-3)Gal(b1-4)GlcNAc(b1-2)Man(a1-3)[GlcNAc(b1-4)][Neu5Ac(a2-3)Gal(b1-4)GlcNAc(b1-2)Man(a1-6)]Man(b1-4)GlcNAc(b1-4)GlcNAc
How it was run: as §1

[35] = biological target: Neu5Ac(a2-3)Gal(b1-4)GlcNAc(b1-2)Man(a1-3)[Neu5Ac(a2-3)Gal(b1-4)GlcNAc(b1-2)Man(a1-6)]Man(b1-4)GlcNAc(b1-4)GlcNAc
How it was run: as §1

[36] = biological target: Neu5Ac(a2-3)Gal(b1-4)GlcNAc(b1-2)Man(a1-3)[Neu5Ac(a2-3)Gal(b1-4)GlcNAc(b1-2)Man(a1-6)]Man(b1-4)GlcNAc(b1-4)[Fuc(a1-6)]GlcNAc
How it was run: as §1

[37] = biological target: Neu5Ac(a2-3)Gal(b1-4)GlcNAc(b1-2)Man(a1-3)[Neu5Ac(a2-6)Gal(b1-4)GlcNAc(b1-2)Man(a1-6)]Man(b1-4)GlcNAc(b1-4)GlcNAc
How it was run: as §1

[38] = biological target: Neu5Ac(a2-3)Gal(b1-4)GlcNAc(b1-2)[Neu5Ac(a2-3)Gal(b1-4)GlcNAc(b1-4)]Man(a1-3)[GlcNAc(b1-4)][Neu5Ac(a2-3)Gal(b1-4)GlcNAc(b1-2)[Neu5Ac(a2-3)Gal(b1-4)GlcNAc(b1-6)]Man(a1-6)]Man(b1-4)GlcNAc(b1-4)GlcNAc
How it was run: as §1

B1: GS13971A-bth-447-22-447 (Bacteroides thetaiotaomicron) (protein)
chain: EDVDNERSKGMFSASQSGFSTIEVYDLGPLNKIDLSIAKAGLEDTGGTVTFSVEQSLLDSLNNADGTSYQLLPPECYTIENATYSVSPGGDRRVTGGSLVYDPHKIYNLCGFDELKYVLPLRVSSTGTPMNSDRTATLYGFIVKEAIVRLASTGGDFVVEGGTTTSPMNLDTEISFENEWDLTTSFATKGADYVDNYNSANSTYYIPLPSDFYTLPDVTIAKGKTTGGSAISLLGETLPPGNYLLPVSLGGLSGQGDASINIDKETVANYFVIKQGGPINRDHWTVTANTEEKTGEVSAAYPHNGQTISLIDGEINTFWHSKWQGGEVAPPYEIILDMGKENSVSQLGLIARQNALTSMNLEIYAGDDGETWNLIGKYFFDGSIKTEQMVPVKACDARWIRIYIPTLGSGSSVGHLAEIYVYGTDK
- glycan array binding signal (z-score) [1]: -0.459
- glycan array binding signal (z-score) [2]: 0.138
- glycan array binding signal (z-score) [3]: 0.252
- glycan array binding signal (z-score) [4]: -0.859
- glycan array binding signal (z-score) [5]: -0.451
- glycan array binding signal (z-score) [6]: 1.75
- glycan array binding signal (z-score) [7]: -0.36
- glycan array binding signal (z-score) [8]: -0.342
- glycan array binding signal (z-score) [9]: 0.032
- glycan array binding signal (z-score) [10]: 0.068
- glycan array binding signal (z-score) [11]: -0.308
- glycan array binding signal (z-score) [12]: 1
- glycan array binding signal (z-score) [13]: -1.4
- glycan array binding signal (z-score) [14]: 0.768
- glycan array binding signal (z-score) [15]: -0.341
- glycan array binding signal (z-score) [16]: -0.93
- glycan array binding signal (z-score) [17]: -0.673
- glycan array binding signal (z-score) [18]: -1.14
- glycan array binding signal (z-score) [19]: -0.456
- glycan array binding signal (z-score) [20]: -0.696
- glycan array binding signal (z-score) [21]: -0.879
- glycan array binding signal (z-score) [22]: -1.04
- glycan array binding signal (z-score) [23]: -0.407
- glycan array binding signal (z-score) [24]: -0.724
- glycan array binding signal (z-score) [25]: 0.009
- glycan array binding signal (z-score) [26]: 0.015
- glycan array binding signal (z-score) [27]: 0.601
- glycan array binding signal (z-score) [28]: 0.217
- glycan array binding signal (z-score) [29]: -1.23
- glycan array binding signal (z-score) [30]: -0.166
- glycan array binding signal (z-score) [31]: 0.359
- glycan array binding signal (z-score) [32]: -0.377
- glycan array binding signal (z-score) [33]: -1.12
- glycan array binding signal (z-score) [34]: -0.255
- glycan array binding signal (z-score) [35]: -0.197
- glycan array binding signal (z-score) [36]: -0.181
- glycan array binding signal (z-score) [37]: -0.746
- glycan array binding signal (z-score) [38]: -0.7

Source: the supplement of paper PMC8728848
